The name of at least one read-out is uncertain.
System: S. molesta
Assay: Phytotoxic analysis by pipet application on upper or lower leaf surface
Format: in vivo, Salvinia molesta
Conditions: 10 μL of 1% solution per blade, upper surface; 72 hrs
Experimental: General Experimental Procedure: 4-Hydroxybenzoic and 3,4-dihydroxybenzoic acids and 14 of their analogs were purchased commercially. Each of 16 compounds were prepared as 5 mL experimental solutions with NANOPURE™ water at 1% concentration. A total of 102 healthy and untreated living type III plants of S. molesta (approximately 10 g in fresh weight each) were cultured and tested in 17 plastic containers (23×23 cm, 2.37 L) with six plants in each container in a greenhouse (30° C. during the day time and 20° C. at night). The first container served as the controls without any treatment, the plants in each of the other 16 containers were treated by one of the 16 testing compounds, respectively. The plants in each container were randomly classified into two groups evenly. For each plant in the first group, 10 μL of 1% experimental solution was applied by pipet on the upper surface of each blade of the six pairs of large floating leaves close to the terminal bud. For each plant in the second group, 10 μL of 1% experimental solution was applied by pipet on the lower surface of each blade of the six pairs of large floating leaves close to the terminal bud. The leaf surfaces were examined for damage and analyzed 72 hrs after the treatments.

Question: With `O=C(O)c1ccc(O)cc1O` [2,4-Dihydroxybenzoic acid] as the compound, how does the “Inhibition (%) Upper leaf Application” value read?
Answer: Its value is 100%.

Source: US11350582B2, “Plant varieties by application of endocides” (Stephen F. Austin State University, priority 2015, dated 2022)
